Results taken from US8431583B2, “Use of purine derivatives for the manufacture of a medicament” (Centre National de la Recherche Scientifique, priority 2007, dated 2013).

Legend:
GSK-3 α/β = experiment: Kinase assay GSK-3α/β; type: biochemical, pig; details: 15 μM ATP, 30° C., buffer A, GS-1 substrate
Description: After incubating at 30° C. for 30 min, 25 μl aliquots of supernatant were deposited on 2.5×3 cm pieces of Whatman P8 phosphocellulose papers and then, 20 sec. later, the filters were washed 5 times in a solution of 10 ml of phosphoric acid/liter. The filters are subsequently counted in the presence of 1 ml of ACS (Amersham).
The mean inhibitory concentration IC50 values were calculated from the dose/response curves and are listed in μM in the following table I.

[1] = test system: B2 lymphocytes originating from patients; experiment: Induction of cell death of B chronic lymphoid leukemia cells (B2 lymphocytes) from patients; type: cell-based; details: Homo sapiens, Lymphocyte, read-out: Induction of cell death (IC50)
Description: The B2 lymphocytes are lymphocytes involved in […] chronic lymphoid leukemia.
Cell viability is determined by the reduction of 3-(4,5-dimethylthiazol-2-yl)-5-(3-carboxymethoxyphenyl)-2-(4-sulfophenyl)-2H-tetrazolium (MTS).
Cell death is determined by the measurement of the level of the activity of the lactate dehydrogenase (LDH) released during lysis of the cells. The two processes are described in detail in “Ribas J. and Boix J. Cell differentiation, caspase inhibition, and macromolecular synthesis blockage, but not BCL-2 or BCL-XL proteins protect SH-SY5Y cells from apoptosis triggered by two CDK inhibitory drugs.
In table 2, the values shown are the mean inhibitory concentration IC50 values, expressed in μM.

CK1δ/e = experiment: Kinase assay CK1; details: read-out: IC50 CK1; 15 μM ATP, 30° C., buffer A

With CC[C@H](CO)Nc1nc(NCc2ccccc2)c2ncn(C(C)C)c2n1 [(R)-Roscovitine, reference compound] the IC50 (GSK-3 α/β) was 60 µM, the IC50 [1] was 8.96 µM and the IC50 (CK1δ/e) was 4 µM.
